Assay results reported in patent US20190203210A1.
These are yes or no findings as the source states them, for the method shown. For part of these data: In cells and extracts the contact can be indirect. Some binding calls cover weakened binding; strength is not graded here. Where a sequence is shown, tags or fusion partners need not be part of it.

Chains of the proteins cited; added tags and fusions are not shown.
UniProt Q7Z6Z7: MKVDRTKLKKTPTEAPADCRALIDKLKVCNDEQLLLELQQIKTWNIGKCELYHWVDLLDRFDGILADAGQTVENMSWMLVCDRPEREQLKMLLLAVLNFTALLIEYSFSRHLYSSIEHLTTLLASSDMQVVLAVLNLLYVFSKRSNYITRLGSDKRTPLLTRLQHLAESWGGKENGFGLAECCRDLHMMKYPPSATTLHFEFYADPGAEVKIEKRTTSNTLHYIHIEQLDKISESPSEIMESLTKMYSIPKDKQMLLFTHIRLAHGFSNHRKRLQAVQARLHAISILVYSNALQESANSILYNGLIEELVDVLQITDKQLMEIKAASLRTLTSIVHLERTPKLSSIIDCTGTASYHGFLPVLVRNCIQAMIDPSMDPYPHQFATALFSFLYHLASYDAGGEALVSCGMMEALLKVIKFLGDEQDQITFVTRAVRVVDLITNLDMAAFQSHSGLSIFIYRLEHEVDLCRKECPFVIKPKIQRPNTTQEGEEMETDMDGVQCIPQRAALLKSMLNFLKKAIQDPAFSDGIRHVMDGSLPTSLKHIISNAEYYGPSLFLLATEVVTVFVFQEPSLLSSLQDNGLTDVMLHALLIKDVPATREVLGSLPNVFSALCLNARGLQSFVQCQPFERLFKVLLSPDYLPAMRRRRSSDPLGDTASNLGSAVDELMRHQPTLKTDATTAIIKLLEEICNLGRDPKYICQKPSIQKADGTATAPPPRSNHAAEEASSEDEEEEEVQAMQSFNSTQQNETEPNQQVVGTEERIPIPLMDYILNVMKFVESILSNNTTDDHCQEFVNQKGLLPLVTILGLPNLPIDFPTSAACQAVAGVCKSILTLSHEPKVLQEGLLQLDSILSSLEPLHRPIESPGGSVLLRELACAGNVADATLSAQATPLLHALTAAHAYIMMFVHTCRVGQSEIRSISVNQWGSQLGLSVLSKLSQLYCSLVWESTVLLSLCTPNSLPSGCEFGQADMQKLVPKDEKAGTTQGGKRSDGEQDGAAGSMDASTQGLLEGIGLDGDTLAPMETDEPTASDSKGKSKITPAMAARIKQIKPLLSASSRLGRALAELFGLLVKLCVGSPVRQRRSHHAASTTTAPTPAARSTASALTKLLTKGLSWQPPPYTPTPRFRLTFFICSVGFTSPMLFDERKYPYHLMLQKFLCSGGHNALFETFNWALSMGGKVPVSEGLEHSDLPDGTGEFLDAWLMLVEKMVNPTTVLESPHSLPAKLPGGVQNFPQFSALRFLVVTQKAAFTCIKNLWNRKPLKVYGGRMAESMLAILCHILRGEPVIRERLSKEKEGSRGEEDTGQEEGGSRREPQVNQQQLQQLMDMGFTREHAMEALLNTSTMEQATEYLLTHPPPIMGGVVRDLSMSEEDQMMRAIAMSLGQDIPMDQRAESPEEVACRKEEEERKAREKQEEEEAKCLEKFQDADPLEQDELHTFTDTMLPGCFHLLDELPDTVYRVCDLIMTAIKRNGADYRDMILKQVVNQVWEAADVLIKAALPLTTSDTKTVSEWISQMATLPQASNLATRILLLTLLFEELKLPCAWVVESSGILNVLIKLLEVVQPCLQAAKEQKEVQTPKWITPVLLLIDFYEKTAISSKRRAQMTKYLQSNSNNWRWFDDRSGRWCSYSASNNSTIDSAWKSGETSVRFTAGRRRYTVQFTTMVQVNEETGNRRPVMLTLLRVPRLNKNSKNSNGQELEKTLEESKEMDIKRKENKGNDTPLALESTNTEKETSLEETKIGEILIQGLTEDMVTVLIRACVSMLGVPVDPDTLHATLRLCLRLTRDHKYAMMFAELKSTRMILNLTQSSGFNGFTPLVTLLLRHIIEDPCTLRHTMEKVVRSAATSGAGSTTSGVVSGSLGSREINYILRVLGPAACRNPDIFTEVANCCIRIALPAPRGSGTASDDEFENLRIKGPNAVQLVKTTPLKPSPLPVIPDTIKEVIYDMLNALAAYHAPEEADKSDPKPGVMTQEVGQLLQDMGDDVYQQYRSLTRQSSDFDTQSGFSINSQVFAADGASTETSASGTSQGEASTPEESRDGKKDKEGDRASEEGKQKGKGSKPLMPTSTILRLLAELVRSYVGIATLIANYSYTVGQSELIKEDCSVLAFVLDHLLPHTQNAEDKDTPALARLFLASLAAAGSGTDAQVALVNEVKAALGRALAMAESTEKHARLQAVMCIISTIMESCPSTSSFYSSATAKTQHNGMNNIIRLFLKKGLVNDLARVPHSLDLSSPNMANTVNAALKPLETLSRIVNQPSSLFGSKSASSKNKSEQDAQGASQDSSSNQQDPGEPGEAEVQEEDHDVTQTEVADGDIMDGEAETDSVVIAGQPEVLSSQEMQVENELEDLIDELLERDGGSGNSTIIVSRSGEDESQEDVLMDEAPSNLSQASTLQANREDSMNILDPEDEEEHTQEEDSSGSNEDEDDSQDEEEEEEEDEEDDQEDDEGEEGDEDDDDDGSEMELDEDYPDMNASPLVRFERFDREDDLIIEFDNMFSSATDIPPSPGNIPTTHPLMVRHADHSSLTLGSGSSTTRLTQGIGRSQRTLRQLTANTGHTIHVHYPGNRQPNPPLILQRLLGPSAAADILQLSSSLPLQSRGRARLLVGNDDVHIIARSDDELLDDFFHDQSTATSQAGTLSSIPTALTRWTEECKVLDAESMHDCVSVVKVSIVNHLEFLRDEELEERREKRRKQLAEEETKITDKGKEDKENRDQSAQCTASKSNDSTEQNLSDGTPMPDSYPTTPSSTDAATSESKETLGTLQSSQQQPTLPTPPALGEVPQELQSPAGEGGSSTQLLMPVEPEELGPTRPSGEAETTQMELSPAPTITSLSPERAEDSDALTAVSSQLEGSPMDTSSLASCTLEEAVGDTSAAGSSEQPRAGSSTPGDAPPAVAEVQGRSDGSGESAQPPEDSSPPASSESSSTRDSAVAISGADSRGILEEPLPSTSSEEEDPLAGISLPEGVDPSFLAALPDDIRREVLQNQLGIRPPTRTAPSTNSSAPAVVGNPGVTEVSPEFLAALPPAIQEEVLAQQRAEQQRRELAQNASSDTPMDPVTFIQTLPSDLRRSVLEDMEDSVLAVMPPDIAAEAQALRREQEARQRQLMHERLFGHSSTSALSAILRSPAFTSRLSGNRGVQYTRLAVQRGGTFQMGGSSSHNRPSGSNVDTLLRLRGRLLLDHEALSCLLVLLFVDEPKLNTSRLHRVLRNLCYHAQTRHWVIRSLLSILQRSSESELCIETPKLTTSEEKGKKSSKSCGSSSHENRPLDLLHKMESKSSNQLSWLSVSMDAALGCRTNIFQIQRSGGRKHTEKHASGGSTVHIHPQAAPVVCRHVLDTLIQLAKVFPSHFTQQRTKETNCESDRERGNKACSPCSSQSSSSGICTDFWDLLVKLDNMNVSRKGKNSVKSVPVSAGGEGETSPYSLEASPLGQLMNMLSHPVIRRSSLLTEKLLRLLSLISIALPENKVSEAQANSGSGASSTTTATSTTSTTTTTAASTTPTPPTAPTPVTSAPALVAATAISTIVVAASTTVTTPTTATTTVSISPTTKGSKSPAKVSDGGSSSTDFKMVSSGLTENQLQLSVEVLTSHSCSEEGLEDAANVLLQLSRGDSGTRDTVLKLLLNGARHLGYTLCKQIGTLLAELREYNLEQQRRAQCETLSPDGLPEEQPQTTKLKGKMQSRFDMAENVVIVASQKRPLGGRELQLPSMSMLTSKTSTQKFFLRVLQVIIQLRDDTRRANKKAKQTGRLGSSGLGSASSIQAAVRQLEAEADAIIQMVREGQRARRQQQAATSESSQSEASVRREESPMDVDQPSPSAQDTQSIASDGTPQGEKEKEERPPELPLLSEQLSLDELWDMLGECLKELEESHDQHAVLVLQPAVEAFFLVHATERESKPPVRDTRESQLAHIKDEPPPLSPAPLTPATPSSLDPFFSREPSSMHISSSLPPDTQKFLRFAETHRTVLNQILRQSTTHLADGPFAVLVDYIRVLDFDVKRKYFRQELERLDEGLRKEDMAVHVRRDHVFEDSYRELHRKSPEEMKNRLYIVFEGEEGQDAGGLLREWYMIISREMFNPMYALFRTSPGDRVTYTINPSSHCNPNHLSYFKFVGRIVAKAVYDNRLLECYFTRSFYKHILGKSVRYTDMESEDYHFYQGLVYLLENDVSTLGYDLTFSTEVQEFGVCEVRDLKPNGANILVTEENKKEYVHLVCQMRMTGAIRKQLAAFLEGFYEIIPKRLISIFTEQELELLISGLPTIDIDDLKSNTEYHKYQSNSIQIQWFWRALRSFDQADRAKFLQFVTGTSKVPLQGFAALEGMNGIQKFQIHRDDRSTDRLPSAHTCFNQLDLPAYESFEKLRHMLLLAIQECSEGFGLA

How the values were obtained:
FLAG-HA-Atoh1 [1] = target: T1, FLAG-HA-Atoh1 (UniProt Q92858); test: MS of Coomassie band from FLAG-HA-Atoh1 IP
T1 sequence (looked up): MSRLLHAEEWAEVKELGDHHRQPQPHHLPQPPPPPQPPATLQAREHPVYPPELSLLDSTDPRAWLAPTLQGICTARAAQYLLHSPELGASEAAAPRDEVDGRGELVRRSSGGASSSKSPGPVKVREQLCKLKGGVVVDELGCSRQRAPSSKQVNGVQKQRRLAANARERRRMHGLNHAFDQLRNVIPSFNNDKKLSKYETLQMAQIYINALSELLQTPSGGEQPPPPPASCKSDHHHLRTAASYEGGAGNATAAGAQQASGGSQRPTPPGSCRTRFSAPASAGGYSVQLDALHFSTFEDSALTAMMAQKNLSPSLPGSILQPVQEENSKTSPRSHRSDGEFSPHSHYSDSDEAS

FLAG-HA-Atoh1 [2] = target: T1, FLAG-HA-Atoh1; test: anti-HA IP of FLAG-HA-Atoh1 293T lysate, LC-MS/MS
FLAG-HA-Atoh1 [3] = target: T1, FLAG-HA-Atoh1; test: reciprocal co-immunoprecipitation and Western blot, FLAG-HA-Atoh1 293T lysates

Measured: binding

HECT, UBA and WWE domain containing 1 (Huwe1) protein (from UniProt Q7Z6Z7 1-4374) (enzyme)
binds: all assays above
